This data set relates to HN5 cells. Put plainly: Roche Cell Death ELISAPlus apoptosis assay in HN5 cells (median effect and sensitization ratio analysis). In kind it is cell-based. Conditions: HN5, 24 h. On the procedure: HN5 cells are LICR-LON-HN5 head and neck carcinoma cells, which were a gift from the Institute of Cancer Research, Surrey, U.K.
Cell lines were grown in RPMI-1640 supplemented with 25 mM HEPES, 10 mM glutamine and 10% fetal bovine serum and maintained at 37° C. and 5% CO2 in a humid incubator. Assays were performed in 96 well microtiter plates with optimum seeding densities for each cell line.
Apoptosis was measured using the Roche Cell Death ELISA^Plus kit (catalog 1 774 425) which detects fragmented nucleosomal DNA that is generated during apoptosis.
Synergistic interaction between compounds was analyzed by the median effect method described by Chou and Talalay (Adv. Enzyme Regul. 22: 27-55, 1984). Briefly, if the two compounds fit the mutually exclusive model of Chou, one calculates the combination index (CI) using the formula CI=((D)1/(Dx)1)+((D)2/(Dx)2) (1) where (D)1 is the concentration of drug 1 in the combination that gives “x” percent apoptosis, (D)2 is the same for drug 2, and (Dx)1 and (Dx)2 are the concentrations of drug 1 or 2 that give “x” percent apoptosis when used alone. (D)1 and (D)2 are known from the composition of the combination and (Dx)1 and (Dx)2 can be calculated from the equation Dx=Dm*[fa/(1−fa)]^1/m (2) where Dm is the concentration of drug giving 50% effect, fa is the fraction affected, and m is the slope from the median effect plot of log (fa/fu) where fu is the fraction unaffected versus log (D). A CI less than 1 indicates synergy, equal to 1 indicates additivity and greater than 1 antagonism.
Sensitization is measured as the ratio between observed and expected apoptosis or caspase activation from a combination of AKT kinase inhibitor and EGFR/erb inhibitor. The expected level of activity (Ae) is calculated by Ae=1−((1−A1)*(1−A2)) (3) where A1 and A2 are the activities of drugs 1 and 2 alone at the concentration used in the combination (Harvey, R. J., J. Theor. Biol. 74: 411-437, 1978).

For the compound `CS(=O)(=O)CCNCc1ccc(-c2ccc3ncnc(Nc4ccc(OCc5cccc(F)c5)c(Cl)c4)c3c2)o1.Cc1ccc(S(=O)(=O)O)cc1.Cc1ccc(S(=O)(=O)O)cc1.O` [GW572016, N-{3-Chloro-4-[(3-fluorobenzyl)oxy]phenyl}-6-[5-({[2-(methanesulphonyl)ethyl]amino}methyl)-2-furyl]-4-quinazolinamine ditosylate monohydrate], where the note is “drug alone (Table 1)”, the “B (median effect plot)” value is −1.444 and the “M (slope of median effect plot)” value is recorded as 1.427.
As to `CS(=O)(=O)CCNCc1ccc(-c2ccc3ncnc(Nc4ccc(OCc5cccc(F)c5)c(Br)c4)c3c2)o1` [GW589522, (4-(3-Fluoro-benzyloxy)-3-bromophenyl)-(6-(5-((2-methanesulphonyl-ethylamino)-methyl)-furan-2-yl)quinazolin-4-yl)-amine], where the note is “drug alone (Table 3)”, the “B (median effect plot)” value is −3.584 and the “M (slope of median effect plot)” value was 2.983.
As to `O=c1cc(N2CCOCC2)oc2c(-c3ccccc3)cccc12` [LY294002, 2-(4-morpholinyl)-8-phenyl-4H-1-benzopyran-4-one, reference compound], for the setting “drug alone (Table 1)”, the “B (median effect plot)” value is −2.433 and the “M (slope of median effect plot)” value is recorded as 1.072. For the same compound, under “drug alone (Table 3)”, the “B (median effect plot)” value is listed as −5.379 and the “M (slope of median effect plot)” value came to 2.573.

For the origin of these results see US20070161665A1, “Cancer treatment method” (priority 2003, published 2007).
